These are yes or no findings as the source states them, for the method shown. Binding seen in cells or lysates may run through a third protein. A result given as binding can be weak or reduced; the word gives no strength.
Target: GST-Rim (Rab3-interacting molecule) (amino acids 1-399) fusion protein
Test: pull-down; GST fusion of an effector domain as bait; isolated acini of wild-type or ashen mice at basal level; pulldown fractions analysed by western blot; only the target purified

binding: binds
B1: Rab3D (protein, UniProt P35276 1-219)
chain: MASASEPPASPRDAADQNFDYMFKLLLIGNSSVGKTSFLFRYADDSFTPAFVSTVGIDFKVKTVYRHDKRIKLQIWDTAGQERYRTITTAYYRGAMGFLLMYDIANQESFTAVQDWATQIKTYSWDNAQVILVGNKCDLEDERVVPAEDGRRLADDLGFEFFEASAKENINVKQVFERLVDIICDKMNESLEPSSSPGSNGKGPALGDTPPPQPSSCSC
